{
  "source": "PubChem BioAssay AID485298",
  "about": "(National Center for Advancing Translational Sciences (NCATS), 2010)",
  "note": "Several values for one entry are separate records, joined by “and”; a condition that tells them apart may be missing. Identical values can stand only once. Screen size: about 320,000 compounds; about 740 (0.23%) were called active. Inconclusive results, whose numbers are uncertain, are shown with a selection of clear calls. Calls follow the shape of the dose curve; as a rule, active = well fitted activation curve with a large enough effect; inconclusive = small, poorly fitted or top-dose-only effect; inactive = no such curve, though single readings can be large or run the other way. Potencies of inconclusive entries are doubtful fits and often do not repeat. Potency is read from the fitted curve at half-maximal effect.",
  "data": [
    {"assay": "qHTS Assay for Small Molecule Inhibitors of Mitochondrial Division or Activators of Mitochondrial Fusion; also: nearly all actives have a fitted effect of over 45% in size; as to growth rescue (activation): % of control where 0% means no effect", "conditions": "S. cerevisiae fusion-defective mutant growth rescue, CellTiterGlo 48 h; growth rescue (activation): at 46.1 µM (top of the series) unless noted", "description": "NIH Chemical Genomics Center [NCGC] NIH Molecular Libraries Probe Production centers Network [MLPCN] MLPCN Grant: MH081279-01 Assay Submitter (PI): Jodi M. Nunnari NCGC Assay Overview: The budding yeast S. cerevisiae is a powerful system to study mitochondrial fusion. Unlike other organisms, yeast cells without functional mitochondrial DNA (mtDNA) can be propagated and studied as long as they maintain a mitochondrial compartment and are provided with a fermentable carbon source. When mitochondrial fusion is blocked in yeast, mitochondrial tubules rapidly fragment and division continues unopposed. Under conditions where fusion is compromised in mammalian cells, nearly identical changes in mitochondrial structure have been observed. Thus, these findings indicate that steady state mitochondrial structure in cells is a characteristic and specific indicator of fusion activity. Mounting evidence has pointed to a connection between mitochondrial dynamics and apoptosis in mammalian cells. These studies indicate that in mammalian cells mitochondrial dynamics are more integrated into cellular processes than in yeast cells and have evolved not only to distribute the organelle but also to aid in the regulation of cellular homeostasis. Mitochondrial fusion proteins attenuate apoptosis by inhibiting the release of cytochrome c from mitochondria, in part by controlling cristae structures. Thus, small molecules that inhibit mitochondrial […] may promote apoptosis and potentially act as novel chemotherapeutics and stimulation of apoptosis has become an attractive target of anti-cancer therapies. To identify inhibitors of mitochondrial division, we exploit the growth phenotypes of mitochondrial fusion-defective mutants. The temperature sensitive fusion alleles, such as fzo1-1 and mgm1-5, cause mitochondrial membranes to fragment in cells under non-permissive conditions and cells lose mtDNA, and are unable to grow in the presence of non-fermentable carbon source glycerol. Inhibiting mitochondrial division rescues growth. We have developed and optimized a luminescence cell viability assay in 1536 well format for the identification of inhibitors in the yeast mitochondrial fusion-defective assay.\nThe yeast glycerol stocks where kindly supplied by the laboratory of Dr. Jodi Nunnari, University of California, Davis. All yeast glycerol stock solutions were stored in single use aliquots at -80C. The CellTiterGlo luminescence reagent, containing luciferase and luciferin, were purchased from Promega, and the reagents were stored according to manufacturer's instructions. The Buffer components for the YPEG yeast growth medium were purchased from Sigma-Aldrich (St. Louis, MO). YPEG growth medium: 1% (w/v) yeast extract, 2% (w/v) Bacto-peptone, 3% Ethanol, 3% glycerol, 0.4mM Tryptophan, 0.36mM Adenine. qHTS Assay Protocol: 1.#Dispense 2.5 ul yeast growth medium per 1536 well plate. 2.#Transfer 23 nl per well of compound to plate. 3.#Dispense 2.5 ul yeast solution at appropriate seeding density per well. 4.#Incubate for 48 hours at 37C. 5.#Dispense 5 ul of CellTiterGlow solution per well. 6.#Incubate at ambient for 10 minutes. 7.#Read using bio-luminescence protocol on Viewlux.", "values": [
      {"smiles": "Cc1nn(Cc2ccccc2)c(C)c1CNC(=O)CN=C1NS(=O)(=O)c2ccccc21", "growth rescue (activation)": "inactive: -6.53%"},
      {"smiles": "CCN(CC)S(=O)(=O)c1ccc(C)c(NC(=O)COC(=O)CN2C(=O)NC(C)(C)C2=O)c1", "growth rescue (activation)": "inactive: 0.119%"},
      {"smiles": "O=C(CCc1ccccc1)C(=O)N1CCCC(C(=O)c2cccc(Cl)c2)C1", "note": "(stereo not given)", "Potency": "inconclusive: 35.5 µM [activator, single point]"},
      {"smiles": "COc1ccc(C2=NN(C(=O)CSc3ncccn3)C(c3ccc(C)cc3)C2)cc1", "note": "(stereo not given)", "Potency": "inconclusive: 35.5 µM [activator, single point]"},
      {"smiles": "CCc1c(C)nc2cc(-c3ccc(OC)c(OC)c3)nn2c1NCC1CC1", "Potency": "inconclusive: 35.5 µM [activator, single point]"},
      {"smiles": "Clc1ccc(-c2nc(N3CCCCC3)nc3ccccc23)cc1", "Potency": "active: 35.5 µM"},
      {"smiles": "c1ccc(Cc2nnc(-c3ccccc3)o2)cc1", "growth rescue (activation)": "inactive: 11.9%"},
      {"smiles": "Cc1cccc(C(=O)c2c[nH]cc2-c2ccccc2)c1", "Potency": "inconclusive: 7.08 µM [activator, partial curve]"},
      {"smiles": "Cc1ccc(Cl)cc1NC(=O)C(Cc1ccccc1)N1C(=O)C2C3CCC(C3)C2C1=O", "note": "(stereo not given)", "Potency": "inconclusive: 17.8 µM [activator, single point]"},
      {"smiles": "COc1cc(S(=O)(=O)N2CCN(Cc3ccc4c(c3)OCO4)CC2)c(C)cc1C", "Potency": "active: 14.1 µM"},
      {"smiles": "COc1cc(C2CC(=O)Oc3c2c(=O)n(C)c2ccccc32)cc(OC)c1OC", "note": "(stereo not given)", "growth rescue (activation)": "inactive: 3.9%"},
      {"smiles": "CCOc1ccccc1CNc1ncnc2ccc(-c3c(C)noc3C)cc12", "Potency": "inconclusive: 31.6 µM [activator, single point] and inconclusive: 14.1 µM [activator, single point]"},
      {"smiles": "Cc1ccc(C)c(S(=O)(=O)N2CCNCC2)c1", "growth rescue (activation)": "inactive: -3.65%"},
      {"smiles": "CCCCOC(=O)c1ccc(NC(=O)c2nn(C)cc2Br)cc1", "Potency": "inconclusive: 20 µM [activator, partial curve]"},
      {"smiles": "CCCOc1ccc(-c2nn(-c3ccccc3)cc2/C=C2\\SC(N)=NC2=O)cc1", "growth rescue (activation)": "inactive: -0.295%"},
      {"smiles": "CCc1nnc(NC(=O)CSc2ccc(-c3ccc(-n4cccn4)cc3)nn2)s1", "growth rescue (activation)": "inactive: -10.1%"},
      {"smiles": "COc1cc2c(cc1NC(=O)C1CCCO1)oc1ccccc12", "note": "(stereo not given)", "Potency": "inconclusive: 15.8 µM [activator, single point]"},
      {"smiles": "CCOC(=O)C1CC(c2ccc(Cl)cc2)=NNC1=O", "note": "(stereo not given)", "growth rescue (activation)": "inactive: 5.33%"},
      {"smiles": "CCN(CC)c1nc(N)c2c(N)n(-c3ccccc3C)c(=S)c(C#N)c2c1C#N", "Potency": "inconclusive: 5.62 µM [activator, single point]"},
      {"smiles": "CNC(=O)c1ccsc1NC(=O)CN1C(=O)CCC1=O", "Potency": "inconclusive: 5.01 µM [activator, single point]"},
      {"smiles": "Fc1cccc(-c2cc3nc(-c4ccccc4)cc(N4CCC5(CC4)OCCO5)n3n2)c1", "Potency": "inconclusive: 10 µM [activator, partial curve]"},
      {"smiles": "C=CCN1c2ccccc2[C@]23C[C@@H](C(=O)OC)N(C(=O)c4ccc(Br)cc4)C2=NC(C(=O)OC)=C(C(=O)OC)[C@H]13", "Potency": "inconclusive: 12.6 µM [activator, partial curve]"},
      {"smiles": "O=C(Cc1c[nH]c2ccccc12)OCCOC(=O)Cc1c[nH]c2ccccc12", "Potency": "inconclusive: 22.4 µM [activator, partial curve]"},
      {"smiles": "COc1ccc2cc(C(C)c3nc4ccccc4c(=O)n3N)ccc2c1", "note": "(stereo not given)", "Potency": "inconclusive: 0.0006 µM [activator]"},
      {"smiles": "COc1cc(C(N)=O)cc(Br)c1OCc1ccccc1", "Potency": "inconclusive: 11.2 µM [activator, partial curve]"},
      {"smiles": "O=C(C1=C[C@@H](c2csc3ccccc23)C[C@@H](OCc2ccc(CO)cc2)O1)N1CCN(Cc2ccccc2)CC1", "growth rescue (activation)": "inactive: -19.6%"},
      {"smiles": "Fc1ccc(NC(=S)N2CCOCC2)c(F)c1", "growth rescue (activation)": "inactive: 2.24%"},
      {"smiles": "CCCC(=Nc1ccccc1OC)C1=C(O)CC(c2ccccc2)CC1=O", "note": "(stereo not given)", "Potency": "inconclusive: 10 µM [activator, partial curve]"},
      {"smiles": "CCOC(=O)[C@H]1[C@H]2COc3ccc(Cl)cc3[C@@H]2N2C(=O)c3ccc(C)cc3NC(=O)[C@@]12C", "Potency": "inconclusive: 22.4 µM [activator, single point]"},
      {"smiles": "N#Cc1c(SCC(=O)Nc2nc3ccccc3s2)sc2c(O)cc(=O)[nH]c12", "growth rescue (activation)": "inactive: 2.89%"},
      {"smiles": "CC1(C)CC(CCN(Cc2ccccc2)C(=O)c2ccco2)(c2ccccc2)CCO1", "note": "(stereo not given)", "Potency": "inconclusive: 11.2 µM [activator, partial curve]"},
      {"smiles": "O=C1c2ccccc2NC2CCCCC12", "note": "(stereo not given)", "Potency": "inconclusive: 10 µM [activator, partial curve]"},
      {"smiles": "O/N=C(\\c1ccc(Cl)cc1)c1cc2ccccc2o1", "Potency": "inconclusive: 15.8 µM [activator, single point]"},
      {"smiles": "CCOc1c(Br)ccc2c1sc1nc[nH]c(=O)c12", "Potency": "inconclusive: 11.2 µM [activator, partial curve]"},
      {"smiles": "CCCC(c1nnnn1C(C)(C)CC)N1CCN(C(=O)c2ccco2)CC1", "note": "(stereo not given)", "Potency": "inconclusive: 15.8 µM [activator, partial curve]"},
      {"smiles": "O=C(NC1CCCCC1)C(c1ccccc1)N(C(=O)Cc1ccsc1)c1ccccc1", "note": "(stereo not given)", "growth rescue (activation)": "inactive: 2.88%"},
      {"smiles": "CCCCOC(=O)c1ccc(NC(=O)c2c(Cl)ccc(Cl)c2OC)cc1", "Potency": "active: 15.8 µM"},
      {"smiles": "CCOC(=O)N1CCC(NC2CCCCCCC2)CC1", "Potency": "inconclusive: 0.501 µM [activator, full curve, poor fit]"},
      {"smiles": "C#CCn1c(=NC(=O)c2cccs2)sc2cccc(OCC)c21", "growth rescue (activation)": "inactive: 4.96%"},
      {"smiles": "CCCCn1nc(C(=O)Nc2ccccc2N2CCCC2)c2ccccc2c1=O", "Potency": "inconclusive: 15.8 µM [activator, partial curve]"},
      {"smiles": "CCc1nc(N2CCOCC2)c(C#N)c2c1CCCC2", "growth rescue (activation)": "inactive: 24%"},
      {"smiles": "CCc1nc2ccccc2c(C(=O)Oc2ccc(C(=O)OC)cc2)c1C", "Potency": "inconclusive: 31.6 µM [activator, single point]"},
      {"smiles": "Cc1ccc(OCC(O)Cn2c(N3CCCCC3)nc3c2c(=O)[nH]c(=O)n3C)cc1", "note": "(stereo not given)", "Potency": "inconclusive: 22.4 µM [activator, partial curve]"},
      {"smiles": "CSc1ccccc1N1CCN(CCCCCC(=O)NC2CCCc3ccccc32)CC1", "note": "(stereo not given)", "Potency": "inconclusive: 29.1 µM [activator, single point]"},
      {"smiles": "CN1CCN(C2=Nc3cc(F)ccc3Cc3ccccc32)CC1", "Potency": "inconclusive: 12.6 µM [activator, partial curve]"}
    ]}
  ]
}
